Data published in patent US20230055566A1.
No constants are given. Whether binding was seen depends on the method and setting. Binding calls can cover weak binding; strength is not graded here. Blank lines part the entries; values can stand above or below the binder they belong to.

Sequences of proteins named here, by UniProt entry; tags and fusion partners are left off. A change or cut given only in a name is not applied to a line headed by its entry.
UniProt P21802: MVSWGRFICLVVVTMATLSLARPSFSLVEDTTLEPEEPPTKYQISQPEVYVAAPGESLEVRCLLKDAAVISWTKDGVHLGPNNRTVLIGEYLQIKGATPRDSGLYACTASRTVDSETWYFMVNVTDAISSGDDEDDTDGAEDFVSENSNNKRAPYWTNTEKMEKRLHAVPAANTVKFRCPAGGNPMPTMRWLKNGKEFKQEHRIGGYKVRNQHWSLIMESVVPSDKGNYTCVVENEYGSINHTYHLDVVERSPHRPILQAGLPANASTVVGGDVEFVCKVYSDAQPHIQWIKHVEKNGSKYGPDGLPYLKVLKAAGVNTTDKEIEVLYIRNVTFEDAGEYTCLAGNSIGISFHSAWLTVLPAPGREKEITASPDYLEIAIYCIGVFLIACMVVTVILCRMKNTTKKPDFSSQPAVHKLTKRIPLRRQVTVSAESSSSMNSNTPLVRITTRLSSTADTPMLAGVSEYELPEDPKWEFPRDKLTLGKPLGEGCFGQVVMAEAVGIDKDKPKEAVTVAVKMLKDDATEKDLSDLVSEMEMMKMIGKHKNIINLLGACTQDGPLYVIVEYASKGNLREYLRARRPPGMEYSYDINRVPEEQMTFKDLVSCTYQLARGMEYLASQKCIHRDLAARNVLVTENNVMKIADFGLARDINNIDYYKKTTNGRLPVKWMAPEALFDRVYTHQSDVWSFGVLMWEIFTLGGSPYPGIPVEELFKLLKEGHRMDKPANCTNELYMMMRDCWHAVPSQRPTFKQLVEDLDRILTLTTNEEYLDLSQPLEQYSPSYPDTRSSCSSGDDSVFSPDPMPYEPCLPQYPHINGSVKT

Assays:
[1] = molecular target: endogenous FGFR2b on the cell membrane of human gastric cancer cells (KATOIII, SNU16) (human) (UniProt P21802); test: flow cytometry on FGFR2b expressing KATOIII cells
[2] = molecular target: endogenous FGFR2b on the cell membrane of human gastric cancer cells (KATOIII, SNU16) (human) (UniProt P21802); test: flow cytometry on KATOIII cells
[3] = molecular target: endogenous FGFR2b on the cell membrane of human gastric cancer cells (KATOIII, SNU16) (human) (UniProt P21802); test: flow cytometry on KATOIII cells, anti-human IgG-Alexa488 secondary
[4] = molecular target: endogenous FGFR2b on the cell membrane of human gastric cancer cells (KATOIII, SNU16) (human) (UniProt P21802); test: confocal microscopy of KATOIII cells incubated with 10 µg/ml antibody
[5] = molecular target: endogenous FGFR2b on the cell membrane of human gastric cancer cells (KATOIII, SNU16) (human) (UniProt P21802); test: confocal microscopy of KATOIII cells incubated with 10 ug/ml Ab 21, Alexa488 secondary

B3: Ab 21c (antibody, V domains shown)
VH: EVQLHQSGTVLARPGASVKMSCKTSGYTFTNYWMHWIKQRPGQGLEWIGAIYPENGDINYNQKFKGKAKLTAVTSASTAYMDLSSLTNEDSAVYYCTSRGDYWGQGTTLTVSS
VL: QIVLTQSPAIMSASPGEKVTMTCSASSGLSYMSWYQQKPGSSPRLLIYDTSNLASGVPVRFSGSGSGTSYSLTISRMEAEDAATYYCQQWSSYPYTFGGGTKLEIK
binding [2]: binds
binding [3]: binds

B4: Ab 21 (antibody, V domains shown)
VH: EVQLHQSGTVLARPGASVKMSCKTSGYTFTNYWMHWIKQRPGQGLEWIGAIYPENGDINYNQKFKGKAKLTAVTSASTAYMDLSSLTNEDSAVYYCTSRGDYWGQGTTLTVSS
VL: QIVLTQSPAIMSASPGEKVTMTCSASSGLSYMSWYQQKPGSSPRLLIYDTSNLASGVPVRFSGSGSGTSYSLTISRMEAEDAATYYCQQWSSYPYTFGGGTKLEIK
binding [4]: binds
binding [5]: binds

Second part, the binder after the results:

binding [1]: binds
B1: Ab hu21-21 (antibody, V domains shown)
VH: EVQLVQSGAEVKKPGASVKVSCKASGYTFTNYWMHWVRQAPGQGLEWMGAIYPENGDINYNQKFKGRVTLTRDTSISTAYMELSRLRSDDTAVYYCTSRGDYWGQGTTVTVSS
VL: AIQLTQSPSSLSASVGDRVTITCSASSGLSYMSWYQQKPGKAPKLLIYDTSNLASGVPSRFSGSGSGTDFTLTISSLQPEDFATYYCQQWSSYPYTFGQGTKLEIK

binding [1]: binds
B2: Ab hu21-26 (antibody, human IgG1, V domains shown)
VH: EVQLVQSGAEVKKPGASVKVSCKASGYTFTNYWMHWVRQAPGQGLEWMGAIYPENRDINYNQKFKGRVTLTRDTSISTAYMELSRLRSDDTAVYYCTSRGDYWGQGTTVTVSS
VL: AIQLTQSPSSLSASVGDRVTITCSASSGLSYMSWYQQKPGKAPKLLIYDTSNLASGVPSRFSGSGSGTDFTLTISSLQPEDFATYYCQQWSSYPYTFGQGTKLEIK
